Measured values taken from patent publication CN114617961A.
Substitutions are numbered along the chain they refer to. Results are given in words; binding and its absence hold for the method and conditions named. Some results given as binding are weak or reduced against the parent protein; the word gives no strength.

B1: MA-2 鼠源抗体 (mouse IgG1 / mouse Ck) (antibody, V domains shown)
VH: EVQLQQSGAELVKPGASVKLSCTASGFNIKDTYMHWVKQRPEQGLEWIGKIDPANGNTKYDPKFQGKATITADTSSNTAYLQLSRLTSEDTAVYYCARDTTVGLDYWGQGTTLTVSS
VL: DIVLTQTPAIMSASLGEKVTMSCRASSSVNYMYWYQQKSDASPKLWIYYTSNLAPGVPARFSGSGSGNSYSLTISSMEGEDAATYYCQQFTSSPSMTFGGGTKLEIKA
B2: MA-3 鼠源抗体 (mouse IgG1 / mouse Ck) (antibody, V domains shown)
VH: EVKLEESGPELVKPGASVKISCKASGYSFTSYYIHWVKQRPGQGLEWIGWIFPGTGNTRYNEKFKGKATLTADTSSSTVYMQLSGLTSEDSAVYFCARIGGRLTGDAMDYWGQGTSVTVSS
VL: DIVLTQSTASLAVSLGQRATISCRASESVDSYGNSFMHWYQQKPGQPPKLLIYLASNLESGVPARFSGSGSRTDFTLTIDPVEADDAATYYCQQNNEDPWTFGGGTKLEIKA
B3: MA-4 鼠源抗体 (mouse IgG1 / mouse Ck) (antibody, V domains shown)
VH: QVKLEESGPGLVQPSQSLSITCTVSAFSLTTYAVHWVRQSPGKGLEWLGVIWSGGSTDYNTAFISRLNITKDNSKSQVFFKMNSLQANDTAIYYCARLDGTFFDYWGQGTTLTVSS
VL: DIVLTQTPAIMSASLGERVTMTCTASSSVSSSYLHWYQQKPGSSPKLWIYSTSNLASGVPARFSGSGSGTSYSLTISSMEAEDAATYYCHQYHRSPPTFGGGTKLEIKA
B4: 人源化抗体HA-1 (human IgG4 / human Ck) (antibody, V domains shown)
VH: QVQLVQSGAEVKKPGASVKVSCKASGYTFTDTYMHWVRQAPGQGLEWIGKIDPANGNTKYDPKFQGRATITADTSISTAYMELSRLRSDDTAVYYCARDTTVGLDYWGQGTLVTVSS
VL: DIVITQSPAFLSVTPGEKVTITCRASSSVNYMYWYQQKPDASPKLWIYYTSKLASGVPSRFSGSGSGTDYTFTISSLEAEDAATYYCQQWSSNPHTFGGGTKVEIKR
B5: 人源化抗体HA-2 (human IgG4 / human Ck) (antibody, V domains shown)
VH: B4 VH
VL: B4 VL with A41Q, S42A, W46L
B6: 人源化抗体HA-3 (human IgG4 / human Ck) (antibody, V domains shown)
VH: B4 VH with T28N, F29I
VL: B4 VL with A41Q, S42A, W46L
B7: 人源化抗体HA-4 (human IgG4 / human Ck) (antibody, V domains shown)
VH: B4 VH with T28N, F29I
VL: B4 VL
B8: 人源化抗体HA-5 (human IgG4 / human Ck) (antibody, V domains shown)
VH: B4 VH with T28N, F29I, T30K, R38K, R67K
VL: B4 VL with S59A, D69S

What follows are binders tested against T1, LAG-3 (human) (UniProt P18627) (assay: ELISA on coated LAG-3).
T1 sequence (looked up): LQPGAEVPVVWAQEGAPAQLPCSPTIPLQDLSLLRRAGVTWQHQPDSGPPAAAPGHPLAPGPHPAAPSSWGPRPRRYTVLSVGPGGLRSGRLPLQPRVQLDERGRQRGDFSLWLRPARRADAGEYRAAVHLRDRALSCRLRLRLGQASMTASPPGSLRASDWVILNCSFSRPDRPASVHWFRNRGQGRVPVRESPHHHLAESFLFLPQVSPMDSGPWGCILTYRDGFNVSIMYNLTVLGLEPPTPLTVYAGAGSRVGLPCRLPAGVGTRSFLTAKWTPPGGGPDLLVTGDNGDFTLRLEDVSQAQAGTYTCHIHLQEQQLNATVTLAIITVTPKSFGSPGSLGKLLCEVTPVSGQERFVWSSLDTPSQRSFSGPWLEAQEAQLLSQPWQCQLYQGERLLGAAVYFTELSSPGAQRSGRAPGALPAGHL
B1 was tested, and the binding was “binds”. With B2 the binding was “binds”. In the case of B3, the binding is reported as “binds”. For B4, the binding was “binds”. In the case of B5, the binding is reported as “binds”. For B6, the binding was “binds”. With B7 the binding was “binds”. For B8, the binding was “binds”.
